Test results: the supplement of paper PMC6411743
± gives the standard deviation of the averaged measurements. Some of the results follow.

Protein sequences, listed by entry. Tags and fused reporters are not part of them. Lines headed by an entry give the natural chain unless they say otherwise; changes in a name come on top.
UniProt P62072: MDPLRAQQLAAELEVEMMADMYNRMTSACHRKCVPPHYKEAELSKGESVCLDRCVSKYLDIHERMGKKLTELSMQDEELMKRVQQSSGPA
UniProt P61081: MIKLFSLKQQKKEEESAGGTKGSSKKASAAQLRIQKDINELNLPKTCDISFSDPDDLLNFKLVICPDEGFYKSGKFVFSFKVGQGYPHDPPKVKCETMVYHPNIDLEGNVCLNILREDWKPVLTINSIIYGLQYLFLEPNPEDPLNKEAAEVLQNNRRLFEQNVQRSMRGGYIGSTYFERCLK
UniProt Q00013: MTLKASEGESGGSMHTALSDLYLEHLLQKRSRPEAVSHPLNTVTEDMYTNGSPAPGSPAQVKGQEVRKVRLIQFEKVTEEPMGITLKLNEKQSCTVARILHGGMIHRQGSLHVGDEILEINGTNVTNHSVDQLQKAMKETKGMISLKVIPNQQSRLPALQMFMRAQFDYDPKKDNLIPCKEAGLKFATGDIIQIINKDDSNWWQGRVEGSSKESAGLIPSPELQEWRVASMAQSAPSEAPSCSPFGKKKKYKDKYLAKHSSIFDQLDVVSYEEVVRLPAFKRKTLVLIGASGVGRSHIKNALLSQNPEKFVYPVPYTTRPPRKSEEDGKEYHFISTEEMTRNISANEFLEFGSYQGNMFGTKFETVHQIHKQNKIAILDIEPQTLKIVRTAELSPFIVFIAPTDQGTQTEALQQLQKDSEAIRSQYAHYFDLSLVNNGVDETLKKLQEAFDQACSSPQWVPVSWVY
UniProt P84090, whole entry, looked up: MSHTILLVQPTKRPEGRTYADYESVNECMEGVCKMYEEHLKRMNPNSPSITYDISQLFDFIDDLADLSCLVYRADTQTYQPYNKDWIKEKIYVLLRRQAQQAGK
UniProt P78316: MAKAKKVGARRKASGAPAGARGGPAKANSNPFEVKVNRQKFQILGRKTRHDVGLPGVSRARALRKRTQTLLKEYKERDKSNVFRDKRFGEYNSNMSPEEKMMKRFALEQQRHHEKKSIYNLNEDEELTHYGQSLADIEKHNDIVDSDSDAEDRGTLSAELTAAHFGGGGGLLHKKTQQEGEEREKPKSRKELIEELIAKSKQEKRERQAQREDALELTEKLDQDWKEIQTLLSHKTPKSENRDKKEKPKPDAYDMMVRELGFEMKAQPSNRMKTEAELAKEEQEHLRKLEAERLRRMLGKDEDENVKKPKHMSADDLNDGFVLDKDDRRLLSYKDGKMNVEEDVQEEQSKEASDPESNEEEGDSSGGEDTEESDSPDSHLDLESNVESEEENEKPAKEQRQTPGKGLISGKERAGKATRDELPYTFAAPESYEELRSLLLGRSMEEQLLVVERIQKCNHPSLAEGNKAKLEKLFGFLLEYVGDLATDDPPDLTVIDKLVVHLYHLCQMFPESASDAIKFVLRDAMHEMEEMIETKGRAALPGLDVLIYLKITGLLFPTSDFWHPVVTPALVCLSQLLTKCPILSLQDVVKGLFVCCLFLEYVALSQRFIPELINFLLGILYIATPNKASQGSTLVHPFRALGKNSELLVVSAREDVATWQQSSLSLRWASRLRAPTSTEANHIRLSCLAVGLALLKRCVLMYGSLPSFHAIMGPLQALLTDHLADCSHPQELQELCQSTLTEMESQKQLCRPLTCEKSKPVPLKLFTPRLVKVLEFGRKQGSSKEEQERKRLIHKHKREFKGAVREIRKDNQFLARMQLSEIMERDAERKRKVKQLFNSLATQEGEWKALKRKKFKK
UniProt Q00534, whole entry: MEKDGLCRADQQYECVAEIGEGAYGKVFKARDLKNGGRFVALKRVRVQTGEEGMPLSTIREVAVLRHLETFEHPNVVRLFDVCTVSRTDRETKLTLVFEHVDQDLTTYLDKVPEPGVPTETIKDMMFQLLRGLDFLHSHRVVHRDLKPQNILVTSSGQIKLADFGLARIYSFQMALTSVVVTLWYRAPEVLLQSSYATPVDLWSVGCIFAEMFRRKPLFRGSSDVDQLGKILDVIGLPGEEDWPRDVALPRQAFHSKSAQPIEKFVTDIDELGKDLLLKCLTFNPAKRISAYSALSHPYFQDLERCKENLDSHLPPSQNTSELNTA
UniProt P55199: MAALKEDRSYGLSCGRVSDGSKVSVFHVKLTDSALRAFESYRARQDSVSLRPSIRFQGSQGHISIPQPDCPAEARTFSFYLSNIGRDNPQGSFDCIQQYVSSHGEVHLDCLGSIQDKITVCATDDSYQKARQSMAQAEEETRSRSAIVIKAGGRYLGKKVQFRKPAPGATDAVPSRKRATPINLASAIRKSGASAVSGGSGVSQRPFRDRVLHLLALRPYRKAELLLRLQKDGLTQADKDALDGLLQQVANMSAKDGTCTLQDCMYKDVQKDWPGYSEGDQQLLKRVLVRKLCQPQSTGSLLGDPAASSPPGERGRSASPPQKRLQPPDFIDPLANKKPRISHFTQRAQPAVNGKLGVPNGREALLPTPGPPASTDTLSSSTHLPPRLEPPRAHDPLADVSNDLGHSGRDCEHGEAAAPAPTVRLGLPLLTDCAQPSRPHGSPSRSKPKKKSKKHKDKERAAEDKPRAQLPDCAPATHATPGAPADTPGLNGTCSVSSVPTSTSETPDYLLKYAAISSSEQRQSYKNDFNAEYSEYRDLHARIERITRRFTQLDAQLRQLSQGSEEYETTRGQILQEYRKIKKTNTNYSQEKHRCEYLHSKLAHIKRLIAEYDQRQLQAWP
UniProt P52298: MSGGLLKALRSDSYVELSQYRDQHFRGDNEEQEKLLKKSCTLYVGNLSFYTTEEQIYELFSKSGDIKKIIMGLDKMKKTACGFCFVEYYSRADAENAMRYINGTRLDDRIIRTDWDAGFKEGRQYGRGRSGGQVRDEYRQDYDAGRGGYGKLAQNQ
UniProt P55010, whole entry: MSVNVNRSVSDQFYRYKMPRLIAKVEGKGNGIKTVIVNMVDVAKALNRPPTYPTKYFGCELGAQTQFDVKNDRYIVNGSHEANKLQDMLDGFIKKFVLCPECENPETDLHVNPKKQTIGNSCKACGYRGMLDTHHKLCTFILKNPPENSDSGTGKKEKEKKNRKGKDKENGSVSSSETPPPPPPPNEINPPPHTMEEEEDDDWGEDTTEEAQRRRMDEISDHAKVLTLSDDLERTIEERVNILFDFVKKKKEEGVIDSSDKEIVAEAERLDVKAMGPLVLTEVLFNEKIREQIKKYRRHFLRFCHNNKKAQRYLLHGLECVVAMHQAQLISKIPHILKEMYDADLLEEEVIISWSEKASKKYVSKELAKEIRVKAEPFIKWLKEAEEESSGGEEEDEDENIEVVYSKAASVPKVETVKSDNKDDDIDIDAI
UniProt P62253: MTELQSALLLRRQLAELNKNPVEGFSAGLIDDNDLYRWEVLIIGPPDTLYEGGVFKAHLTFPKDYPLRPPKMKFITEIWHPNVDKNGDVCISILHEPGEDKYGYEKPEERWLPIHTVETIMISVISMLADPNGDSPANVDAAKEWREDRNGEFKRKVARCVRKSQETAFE
UniProt P60468, whole entry: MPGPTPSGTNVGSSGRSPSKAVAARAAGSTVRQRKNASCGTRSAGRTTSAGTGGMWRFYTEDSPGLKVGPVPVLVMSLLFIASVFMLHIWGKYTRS
UniProt P55957: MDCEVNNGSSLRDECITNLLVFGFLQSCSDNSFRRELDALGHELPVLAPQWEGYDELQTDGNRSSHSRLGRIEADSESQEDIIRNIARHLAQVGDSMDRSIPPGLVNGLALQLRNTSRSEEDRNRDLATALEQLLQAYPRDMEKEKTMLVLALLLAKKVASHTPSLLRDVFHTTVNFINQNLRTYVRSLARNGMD
UniProt P61962: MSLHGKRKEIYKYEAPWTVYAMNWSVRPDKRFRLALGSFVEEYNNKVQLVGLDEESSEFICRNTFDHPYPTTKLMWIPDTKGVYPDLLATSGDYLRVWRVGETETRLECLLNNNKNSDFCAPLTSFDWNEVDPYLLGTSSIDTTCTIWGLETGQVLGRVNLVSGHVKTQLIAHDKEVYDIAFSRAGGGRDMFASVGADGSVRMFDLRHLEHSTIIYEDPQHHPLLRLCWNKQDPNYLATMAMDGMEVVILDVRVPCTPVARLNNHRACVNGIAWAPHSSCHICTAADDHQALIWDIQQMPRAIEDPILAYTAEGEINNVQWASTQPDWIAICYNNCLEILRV
UniProt P62314, whole entry: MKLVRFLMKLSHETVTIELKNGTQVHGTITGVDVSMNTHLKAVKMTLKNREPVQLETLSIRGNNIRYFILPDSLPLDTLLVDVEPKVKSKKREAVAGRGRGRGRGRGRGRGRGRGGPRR
UniProt P82970: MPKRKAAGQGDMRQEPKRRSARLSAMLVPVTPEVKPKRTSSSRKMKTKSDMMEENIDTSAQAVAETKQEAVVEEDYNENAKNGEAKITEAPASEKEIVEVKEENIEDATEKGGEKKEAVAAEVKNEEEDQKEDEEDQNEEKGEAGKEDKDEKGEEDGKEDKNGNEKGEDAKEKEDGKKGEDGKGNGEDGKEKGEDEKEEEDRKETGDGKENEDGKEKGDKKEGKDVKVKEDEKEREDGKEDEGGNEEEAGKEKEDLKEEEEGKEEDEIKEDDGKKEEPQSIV
UniProt P52294, whole entry: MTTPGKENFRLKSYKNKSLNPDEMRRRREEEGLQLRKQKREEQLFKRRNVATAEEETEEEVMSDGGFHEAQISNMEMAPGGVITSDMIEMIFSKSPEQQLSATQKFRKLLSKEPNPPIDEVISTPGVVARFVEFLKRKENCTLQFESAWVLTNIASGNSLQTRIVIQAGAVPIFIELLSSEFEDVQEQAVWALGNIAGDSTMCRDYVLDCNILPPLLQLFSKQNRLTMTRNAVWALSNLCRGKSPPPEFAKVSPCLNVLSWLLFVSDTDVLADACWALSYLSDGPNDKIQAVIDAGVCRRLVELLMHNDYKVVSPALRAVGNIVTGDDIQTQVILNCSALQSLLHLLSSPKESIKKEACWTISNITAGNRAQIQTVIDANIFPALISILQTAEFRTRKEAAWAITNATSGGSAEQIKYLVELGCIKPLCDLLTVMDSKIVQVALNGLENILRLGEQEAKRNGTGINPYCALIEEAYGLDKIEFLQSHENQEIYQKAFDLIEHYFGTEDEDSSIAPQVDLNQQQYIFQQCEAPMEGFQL
UniProt P60842, whole entry: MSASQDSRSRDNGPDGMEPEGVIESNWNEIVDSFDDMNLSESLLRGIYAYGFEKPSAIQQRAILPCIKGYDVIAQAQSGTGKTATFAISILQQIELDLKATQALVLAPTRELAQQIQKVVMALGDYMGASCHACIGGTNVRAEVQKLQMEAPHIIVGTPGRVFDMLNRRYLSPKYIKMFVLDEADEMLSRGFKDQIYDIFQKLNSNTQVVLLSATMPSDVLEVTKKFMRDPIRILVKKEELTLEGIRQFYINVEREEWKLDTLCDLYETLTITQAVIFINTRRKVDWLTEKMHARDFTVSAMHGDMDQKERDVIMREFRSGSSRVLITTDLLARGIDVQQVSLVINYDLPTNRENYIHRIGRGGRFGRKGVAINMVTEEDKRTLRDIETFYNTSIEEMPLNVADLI
UniProt P62993, whole entry, looked up: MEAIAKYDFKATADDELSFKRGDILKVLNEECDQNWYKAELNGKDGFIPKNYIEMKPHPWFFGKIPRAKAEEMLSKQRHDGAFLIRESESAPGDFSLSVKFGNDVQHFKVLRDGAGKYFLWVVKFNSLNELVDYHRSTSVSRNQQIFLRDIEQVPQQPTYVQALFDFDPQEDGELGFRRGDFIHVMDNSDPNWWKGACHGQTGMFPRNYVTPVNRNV
UniProt P52788: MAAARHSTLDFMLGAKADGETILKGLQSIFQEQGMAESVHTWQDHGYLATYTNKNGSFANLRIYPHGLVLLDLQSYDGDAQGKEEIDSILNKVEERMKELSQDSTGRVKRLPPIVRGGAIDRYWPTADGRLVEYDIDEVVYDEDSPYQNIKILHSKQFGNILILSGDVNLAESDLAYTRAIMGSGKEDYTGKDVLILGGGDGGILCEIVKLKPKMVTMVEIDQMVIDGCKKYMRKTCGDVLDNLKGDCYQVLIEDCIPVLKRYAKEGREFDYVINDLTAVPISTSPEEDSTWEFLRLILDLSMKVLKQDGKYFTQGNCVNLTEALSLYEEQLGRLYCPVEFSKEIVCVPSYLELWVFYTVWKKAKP
UniProt P62330: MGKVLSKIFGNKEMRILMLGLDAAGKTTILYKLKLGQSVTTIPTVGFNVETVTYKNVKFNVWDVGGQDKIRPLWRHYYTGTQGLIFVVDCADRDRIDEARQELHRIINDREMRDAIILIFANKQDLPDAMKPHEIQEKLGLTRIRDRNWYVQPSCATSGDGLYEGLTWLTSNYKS
UniProt P78406: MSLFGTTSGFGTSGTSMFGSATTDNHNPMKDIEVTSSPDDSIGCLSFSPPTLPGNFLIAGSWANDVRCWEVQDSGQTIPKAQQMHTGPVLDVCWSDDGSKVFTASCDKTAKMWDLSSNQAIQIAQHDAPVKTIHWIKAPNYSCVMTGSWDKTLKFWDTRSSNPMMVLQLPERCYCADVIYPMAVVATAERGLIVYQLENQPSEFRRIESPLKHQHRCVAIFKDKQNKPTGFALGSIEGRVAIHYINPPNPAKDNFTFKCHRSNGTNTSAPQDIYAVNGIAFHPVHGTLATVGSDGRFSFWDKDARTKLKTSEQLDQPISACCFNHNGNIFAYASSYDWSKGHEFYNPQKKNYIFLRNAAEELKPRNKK

Each target was assayed with Nc1nc2c(ncn2[C@@H]2O[C@H](COP(=O)(O)OP(=O)(O)OP(=O)(O)O)[C@@H](O)[C@H]2O)c(=O)[nH]1 [guanosine triphosphate] (assay: NP40-soluble protein abundance relative to vehicle (solubility fold change) (ratio); higher = more soluble protein in presence of GTP). Conditions: concentration: 0.1mM.
In short: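 Each value is a fold change relative to the detergent-processed vehicle, calculated per replicate from vsn-normalised intensities. Jurkat crude lysate received eight concentrations (0.1 to 10 mM) for 10 min at room temperature and 3 min at 37 °C, then was solubilised in 0.8% NP40 with benzonase (60 min, 4 °C). The ultracentrifuged supernatant was TMT-labelled and run by LC-MS/MS in three independent experiments.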
Target UniProt P51157 and related entries has an NP40-soluble protein abundance of 0.975 ± 0.039. UniProt P62195 gave an NP40-soluble protein abundance of 1.03 ± 0.069. UniProt P62072 showed an NP40-soluble protein abundance of 0.991 ± 0.067. UniProt P61081 gave an NP40-soluble protein abundance of 0.968 ± 0.033. Work on MPP1 (UniProt Q00013) yielded an NP40-soluble protein abundance of 1.011 ± 0.0097. UniProt P61160 and related entries was tested, and the NP40-soluble protein abundance was 1.05 ± 0.042. Work on UniProt P84090 yielded an NP40-soluble protein abundance of 1.06 ± 0.1. With UniProt P57772 and related entries the NP40-soluble protein abundance was 1.06 ± 0.046. In the case of UniProt P61244 and related entries, the NP40-soluble protein abundance is reported as 0.876 ± 0.046. With NOP14 (UniProt P78316) the NP40-soluble protein abundance was 0.965 ± 0.029. UniProt P61009 gave an NP40-soluble protein abundance of 0.969 ± 0.031. Work on UniProt P68371 yielded an NP40-soluble protein abundance of 0.929 ± 0.11. Work on UniProt P61129 yielded an NP40-soluble protein abundance of 0.917 ± 0.046. For UniProt P54578 and related entries, the NP40-soluble protein abundance was 0.975 ± 0.029. UniProt P62857 was tested, and the NP40-soluble protein abundance was 0.827 ± 0.046. Work on UniProt P61764 and related entries yielded an NP40-soluble protein abundance of 1.04 ± 0.043. In the case of CDK6 (UniProt Q00534), the NP40-soluble protein abundance is reported as 0.972 ± 0.05. Work on UniProt P55199 and related entries yielded an NP40-soluble protein abundance of 1.04 ± 0.054. In the case of NCBP2 (UniProt P52298), the NP40-soluble protein abundance is reported as 0.991 ± 0.029. Work on UniProt P98155 and related entries yielded an NP40-soluble protein abundance of 1.06 ± 0.032. Work on EIF5 (UniProt P55010) yielded an NP40-soluble protein abundance of 0.948 ± 0.053. UniProt P52564 was tested, and the NP40-soluble protein abundance was 1.02 ± 0.018. For UniProt P62253, the NP40-soluble protein abundance was 0.994 ± 0.052. Work on EIF6 (UniProt P56537) yielded an NP40-soluble protein abundance of 1.05 ± 0.023. CPT1A (UniProt P50416) gave an NP40-soluble protein abundance of 1.08 ± 0.061. SEC61B (UniProt P60468) showed an NP40-soluble protein abundance of 0.9 ± 0.16. With UniProt P55957 and related entries the NP40-soluble protein abundance was 0.918 ± 0.15. UniProt P61962 gave an NP40-soluble protein abundance of 1.02 ± 0.081. In the case of UniProt P62314, the NP40-soluble protein abundance is reported as 1.05 ± 0.072. In the case of UniProt P82970 and related entries, the NP40-soluble protein abundance is reported as 0.887 ± 0.039. For KPNA1 (UniProt P52294), the NP40-soluble protein abundance was 1.06 ± 0.044. For UniProt P60842, the NP40-soluble protein abundance was 0.933 ± 0.094. Work on GRB2 (UniProt P62993) yielded an NP40-soluble protein abundance of 0.986 ± 0.05. SMS (UniProt P52788) gave an NP40-soluble protein abundance of 0.99 ± 0.02. With UniProt P62330 the NP40-soluble protein abundance was 1.08 ± 0.017. For FOXK1 (UniProt P85037), the NP40-soluble protein abundance was 0.995 ± 0.033. For MRPS6 (UniProt P82932), the NP40-soluble protein abundance was 1.02 ± 0.16. For UniProt P78406 and related entries, the NP40-soluble protein abundance was 0.96 ± 0.035. UniProt P82912 and related entries gave an NP40-soluble protein abundance of 1.14 ± 0.059.

Same assay, conditions: concentration: 0.5mM
Work on UniProt P51157 and related entries yielded an NP40-soluble protein abundance of 0.981 ± 0.076. Target UniProt P62195 has an NP40-soluble protein abundance of 1.08 ± 0.12. Target UniProt P62072 has an NP40-soluble protein abundance of 0.963 ± 0.1. Target UniProt P61081 has an NP40-soluble protein abundance of 0.963 ± 0.017. Work on MPP1 (UniProt Q00013) yielded an NP40-soluble protein abundance of 1 ± 0.036. UniProt P61160 and related entries was tested, and the NP40-soluble protein abundance was 1.08 ± 0.07. UniProt P84090 was tested, and the NP40-soluble protein abundance was 1.02 ± 0.06. With UniProt P57772 and related entries the NP40-soluble protein abundance was 1.09 ± 0.07. UniProt P61244 and related entries showed an NP40-soluble protein abundance of 0.744 ± 0.051. For NOP14 (UniProt P78316), the NP40-soluble protein abundance was 0.948 ± 0.06. UniProt P61009 gave an NP40-soluble protein abundance of 0.937 ± 0.067. UniProt P68371 showed an NP40-soluble protein abundance of 1.03 ± 0.15. UniProt P61129 showed an NP40-soluble protein abundance of 0.976 ± 0.051. UniProt P54578 and related entries was tested, and the NP40-soluble protein abundance was 0.998 ± 0.021. For UniProt P62857, the NP40-soluble protein abundance was 0.7927 ± 0.0065. Target UniProt P61764 and related entries has an NP40-soluble protein abundance of 1.05 ± 0.077. With CDK6 (UniProt Q00534) the NP40-soluble protein abundance was 0.977 ± 0.017. UniProt P55199 and related entries gave an NP40-soluble protein abundance of 1.02 ± 0.05. With NCBP2 (UniProt P52298) the NP40-soluble protein abundance was 0.992 ± 0.041.
